Assay results published in patent publication US20060211632A1, “PXR agonists for cardiovascular disease” (priority 2005, published 2006).
At least one structure is not confirmed: it was looked up by name or label, or the drawing left a doubt.

System: serum ApoA1
Test: Serum apoA1 in wild-type mice after 7 days of treatment (immuno-turbidimetric assay)
Format: in vivo, wild-type (WT; C57BL/6) mice
Conditions: gavage once daily 7 days, 100 mg/kg, gemfibrozil 20 mg/Kg, troglitazone 6 and 60 mg/Kg, Dunnett's procedure
Procedure: PXR-KO mice were treated with either rifampicin, gemfibrozil, or CDD 3540. In all cases methylcellulose was used as a vehicle control. These chemicals were administered, as a suspension in 1% methylcellulose (vehicle) by gavage using a 20 G—1½-inch feeding needle. The animals were treated in groups of three and for each treated group two mice were treated simultaneously with methylcellulose (vehicle). Each treatment was given once daily in the morning for seven days. The doses were 100 mg/kg for CTZ, rifampicin, CDD 3540, phenobarbital and TCPOBOP, 6 mg/kg and 60 mg/Kg for troglitazone and 0.175 mg/Kg and 1.75 mg/Kg for hyperforin, and for gemfibrozil 20 mg/Kg and 100 mg/Kg. […]
After the completion of the treatment (i.e. on day 8), blood samples were collected from the tail of the animals for serum HDL-C and ApoA1 determination. […] The serum samples were then stored at −20° C. for up to 24 hours before quantitative determination of HDL-C and ApoA1.
An immuno-turbidimetric assay was developed for quantitative determination of ApoA1 in mouse serum. […] 1 μl of mouse plasma was mixed with 3 μl of distilled water for quantitation of apoA1. […] Absorbance was measured at 580 nm using a Beckmann DU640 Spectrophotometer. Each sample or standard was analyzed twice, and the average of both readings was used. […]

CCC1(c2ccccc2)C(=O)NC(=O)NC1=O [phenobarbital]
apoA1 relative to controls (methylcellulose): significantly elevated
